# Test results taken from patent US8609725B2, “Method of using beta-hydroxy-beta-methylbutyrate for reducing tumor growth rate” (Abbott Laboratories, priority 2004, dated 2013).
# At least one structure is not confirmed: it was looked up by name or label, or the drawing left a doubt.
# What was measured:
# [1] = test system: β subunits of the proteasome; experiment: 'Chymotrypsin-like' enzyme activity in PIF-treated murine myotubes; type: cell-based; conditions: 50 μM
# Description: The functional activity of the β subunits of the proteasome was determined as the ‘chymotrypsin-like’ enzyme activity obtained fluorimetrically according to the method of Orino, E. et al. ATP-dependent reversible association of proteasomes with multiple protein components to form 26S complexes that degrade ubiquitinated proteins in human HL-60 cells. FEBS Lett., 284: 206-210, 1991. Myotubes were exposed to PIF for 24 h with or without EPA or HMB added 2 h prior to PIF and enzyme activity was determined in a supernatant fraction (Whitehouse, A. S. et al. Increased expression of the ubiquitin-proteasome pathway in murine myotubes by proteolysis-inducing factor (PIF) is associated with activation of the transcription factor NF-κB. Br. J. Cancer, 89: 1116-1122, 2003) by the release of aminomethyl coumarin (AMC) from succinyl-LLVY-AMC (0.1 mM) in the presence or absence of the specific proteasome inhibitor lactacystin (10 μM) (Fenteany, G. et al. Lactacystin, proteasome function and cell fate. J. Biol. Chem., 273: 8545-8548, 1998). Only lactacystin suppressible activity was considered to be proteasome specific. Activity was adjusted for the protein concentration of the sample, determined using the Bradford assay (Sigma Chemical Co., Dorset, United Kingdom) using bovine serum albumin as standard.
# [2] = test system: 20S proteasome α-subunits; experiment: Western blotting of 20S proteasome α-subunits in gastrocnemius muscle of MAC16 mice; type: in vivo, NMRI mice; conditions: HMB 0.25 g/kg, EPA 0.6 g/kg or combination, 3 days
# [3] = test system: 20S proteasome β-subunits; experiment: Western blotting of 20S proteasome β-subunits in gastrocnemius muscle of MAC16 mice; type: in vivo, NMRI mice; conditions: HMB 0.25 g/kg, EPA 0.6 g/kg or combination, 3 days
# [4] = test system: C2C12 myotubes; conditions: 50 μM EPA; cited from earlier work
# [5] = test system: MSS1, an ATPase subunit of the 19S proteasome regulatory complex; experiment: Western blotting of MSS1 in gastrocnemius muscle of MAC16 mice; type: in vivo, NMRI mice; conditions: HMB 0.25 g/kg, EPA 0.6 g/kg or combination, 3 days
# [6] = test system: ubiquitin-conjugating enzyme, E214k; experiment: Western blotting of E214k in gastrocnemius muscle of MAC16 mice; type: in vivo, NMRI mice; conditions: HMB 0.25 g/kg, EPA 0.6 g/kg or combination, 3 days
# Description: For Western blotting samples of soleus muscle cytosolic protein (2 to 5 μg), obtained from the above assay, were resolved on 10% SDS-PAGE and transferred to 0.45 μm nitrocellulose membrane (HybondTM, Amersham Life Science Products, Bucks, United Kingdom), which had been blocked with 5% Marvel in PBS. The primary antibodies for MSS1 and p42 were used at a dilution of 1:5000, for 20S proteasome α-subunits at 1:1500 and for β-subunits at 1:1000, while the antibody for […] was used at a dilution of 1:500. The secondary antibodies were used at a dilution of 1:2000. Mouse monoclonal antibodies to 20S proteasome subunits a 1, 2, 3, 5, 6 and 7 (clone MCP 231), 20S proteasome subunit β3 (HC10), 19S regulator ATPase subunit […]1; clone MSS1-104) and 19S regulator ATPase subunit Rpt 4 ([…], p42; clone p42-23) were purchased from Affiniti Research Products, Exeter, United Kingdom. Rabbit polyclonal antisera to ubiquitin-conjugating enzyme E2 (anti-UBC2 antibody) was a gift from Dr. Simon Wing, McGill University, Montreal, Quebec, Canada. Peroxidase-conjugated goat anti-rabbit and rabbit anti-mouse secondary antibodies were from Dako Ltd., Cambridge, United Kingdom. Incubation was carried out for 2 h at room temperature, and developed by chemiluminescence (ECL; Amersham).
# [7] = test system: p42/44 MAPK (ERK1, ERK2); experiment: PIF-induced phosphorylation of ERK 1/2 (p42/44 MAPK) in murine myotubes; type: cell-based; conditions: 50 μM
# Description: (§1) For Western blot analysis, cytosolic protein (2 to 5 μg) obtained for the above assay were resolved on 10% SDS-PAGE and transferred to 0.45 μm nitrocellulose membrane, which had been blocked with 5% Marvel in PBS, at 4° C. overnight. The primary antibodies were used at a dilution of 1:100 (anti-actin and PKCα); 1:500 (anti-ERK1 and 2); 1:1000 (anti-20S proteasome β-subunit and I-κBα); 1:1500 (anti-20S proteasome α-subunit) or 1:5000 (anti-p42), while the secondary antibodies were used at a dilution of 1:2000. Incubation was carried out for 2 h at room temperature and development was by ECL. Loading was quantitated by actin concentration.
# (§2) The in vitro study described in Example III above also evaluated the effect of HMB on molecules that are key mediators in the pathway of inflammation. This experiment was conducted as described in Example III.
# [8] = test system: gastrocnemius muscle of mice bearing the MAC16 tumor; conditions: EPA, Beck et al.; cited from earlier work
# [9] = test system: proteasome; experiment: Functional proteasome 'chymotrypsin-like' enzyme activity in gastrocnemius muscle of MAC16 mice; type: in vivo, NMRI mice; conditions: HMB 0.25 g/kg, EPA 0.6 g/kg or combination, 3 days
# Description: Functional proteasome activity was determined by measuring the ‘chymotrypsin-like’ enzyme activity, the predominant proteolytic activity of the β-subunits of the proteasome according to the method of Orino, E. et al. ATP-dependent reversible association of proteasomes with multiple protein components to form 26S complexes that degrade ubiquitinated proteins in human HL-60 cells. FEBS Lett., 284: 206-210, 1991. Muscles were rinsed with ice-cold PBS, minced and sonicated in 20 mM Tris. HCl, pH 7.5, 2 mM ATP, 5 mM MgCl2 and 1 mM DTT. The sonicate was then centrifuged for 10 min at 18,000 g, at 4° C. and the supernatant was used to determine ‘chymotrypsin-like’ enzyme activity by the release of aminomethyl coumarin (AMC) from the fluorogenic substrate succinyl-LLVY-AMC. Activity was measured in the absence and presence of the specific proteasome inhibitor lactacystin (10 μM). Only lactacystin suppressible activity was considered to be proteasome specific.
# [10] = biological target: T1, PKCα (Mus musculus, UniProt P20444); experiment: PIF-stimulated translocation of PKCα from cytoplasm to plasma membrane in murine myotubes; type: cell-based; conditions: 50 μM
# T1 construct: PIF stimulates translocation of PKCα from the cytoplasm to the plasma membrane; endogenous in cells; host or cells: murine myotubes (C2C12)
# Description: as §1, §2
# [11] = test system: p42, ATPase subunit of the 19S regulator; experiment: Western blotting of p42 in gastrocnemius muscle of MAC16 mice; type: in vivo, NMRI mice; conditions: HMB 0.25 g/kg, EPA 0.6 g/kg or combination, 3 days
# [12] = test system: proteasome 20S α subunits, β subunits and p42; experiment: Western blot of PIF-induced proteasome subunit expression in C2C12 myotubes; type: cell-based, murine; conditions: 50 μM; PIF at 4.2 and 10 nM
# Description: as §1
# [13] = test system: C2C12 myotubes; experiment: PIF-induced total protein degradation in C2C12 myotubes; type: cell-based, murine; conditions: 50 μM, 24 h after addition of PIF
# Description: C2C12 myotubes were routinely passaged in DMEM supplemented with 10% FCS, glutamine and 1% penicillin-streptomycin under an atmosphere of 10% CO2 in air at 37 °C. Myotubes were formed by allowing confluent cultures to differentiate in DMEM containing 2% HS, with medium changes every 2 days.
# PIF was purified from solid MAC16 tumors (Todorov, P. et al. Characterization of a cancer cachectic factor. Nature, 379: 739-742, 1996.) excised from mice with a weight loss of 20 to 25%. Tumors were homogenised in 10 mM Tris-HCl, pH 8.0, containing 0.5 mM phenylmethylsulfonyl fluoride, 0.5 mM EGTA and 1 mM dithiothreitol at a concentration of 5 ml/g tumor. […]
# Myotubes in six-well multidishes were labeled with L-[2, 6^−3H] phenylalanine (0.67 mCi/mmole) for 24 h in 2 ml DMEM containing 2% HS. They were then washed three times in PBS followed by a 2 h incubation at 37° C. in DMEM without phenol red until no more radioactivity appeared in the supernatant. These myotubes were then further incubated for 24 h in the presence of PIF, with and without EPA or HMB, in fresh DMEM without phenol red, to prevent quenching of counts, and in the presence of 2 mM cold phenylalanine to prevent reincorporation of radioactivity. The amount of radioactivity released into the medium was expressed as a percentage of control cultures not exposed to PIF to determine total protein degradation.
# [14] = test system: I-κBα; conditions: 50 μM EPA; cited from earlier work
structure (smiles),measurement,setting,value
"CC/C=C\C/C=C\C/C=C\C/C=C\C/C=C\CCCC(=O)O [EPA, eicosapentaenoic acid, reference compound]",attenuation of PIF-induced increase in 'chymotrypsin-like' enzyme activity,[1],completely attenuated
same,expression of 20S proteasome α-subunits,[2],attenuated
same,expression of 20S proteasome β-subunits,[3],attenuated
same,attenuation of PIF induced protein degradation (previously shown),[4],effective
same,expression of MSS1,[5],attenuated
same,expression of E214k,[6],reduced
same,attenuation of PIF-induced phosphorylation of p42/44,[7],completely attenuated
same,depression of protein synthesis in skeletal muscle of mice bearing the MAC16 tumor (literature),[8],no effect
same,increase in protein degradation in skeletal muscle of mice bearing the MAC16 tumor (literature),[8],attenuate
same,functional proteasome activity ('chymotrypsin-like' enzyme activity),[9],attenuated
same,attenuation of PIF-stimulated translocation of PKCα,[10],effectively attenuated
same,expression of p42,[11],equally effective
same,"attenuation of PIF-increased expression of proteasome 20S α subunits, β subunits and p42",[12],attenuated
same,attenuation of PIF induced protein degradation,[13],equally effective
same,attenuation of PIF-induced I-κBα degradation and nuclear accumulation of NF-κB (literature),[14],attenuated
